The values below come from paper PMC8828718.

One experiment deals with T1, Polo.Flag (Drosophila) (UniProt P52304).
T1 sequence: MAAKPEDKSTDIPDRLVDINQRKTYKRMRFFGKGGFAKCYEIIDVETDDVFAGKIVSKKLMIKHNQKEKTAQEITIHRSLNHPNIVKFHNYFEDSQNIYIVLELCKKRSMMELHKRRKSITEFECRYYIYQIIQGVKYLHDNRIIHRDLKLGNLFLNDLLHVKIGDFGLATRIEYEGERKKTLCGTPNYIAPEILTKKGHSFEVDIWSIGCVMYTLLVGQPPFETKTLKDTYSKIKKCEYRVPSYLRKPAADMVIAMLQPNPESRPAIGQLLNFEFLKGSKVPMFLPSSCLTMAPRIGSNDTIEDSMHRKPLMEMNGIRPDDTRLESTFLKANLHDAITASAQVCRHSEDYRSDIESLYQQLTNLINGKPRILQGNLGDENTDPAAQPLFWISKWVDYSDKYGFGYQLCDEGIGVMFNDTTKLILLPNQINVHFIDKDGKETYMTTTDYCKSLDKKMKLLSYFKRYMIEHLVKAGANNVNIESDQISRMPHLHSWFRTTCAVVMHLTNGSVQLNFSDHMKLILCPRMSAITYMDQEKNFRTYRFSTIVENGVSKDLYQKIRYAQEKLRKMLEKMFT
In words: co-IP; reciprocal immunoprecipitation from lysates of S2 cells transfected with Bsd or Bsd.Q545* and Polo; IP with anti-FLAG or anti-Myc, blot with anti-Myc or anti-FLAG.

In experiment [1] the target is Bsd.Myc (full-length Back seat driver) (Drosophila). In words: co-IP; immunoprecipitation screen in S2 cells transfected with Bsd and BDGP Flag-HA (FMO) plasmids, CuSO4 induction; IP with anti-FLAG or anti-Myc, Dynabeads, IP buffer with 1% NP40.

Results are given in words; binding and its absence hold for the method and conditions named. Binding seen in cells or lysates may run through a third protein. Binding can be weak; no strength is given. Tags and fused reporters may be left off the sequences shown.

Consider “Bsd.Myc (full-length Back seat driver) (Drosophila) (enzyme)”, for which the binding entry in the experiment with Polo.Flag (Drosophila) is recorded as “binds”.

B1: Jaguar (Jar, Myosin VI), Flag-HA C-terminal fusion (BDGP FMO12286) (protein, UniProt Q01989 1-1253)
chain: MLEDTQLVWVRDAAEGYIQGRITEIGAKEFEVTPTDRKYPKRTCHFDDIHSSCDGPQDHDDNCELMLLNEATFLDNLKTRYYKDKIYTYVANILIAVNPYREIKELYAPDTIKKYNGRSLGELPPHVFAIADKAIRDMRVYKLSQSIIVSGESGAGKTESTKYLLKYLCYSHDSAGPIETKILDANPVLEAFGNAKTTRNNNSSRFGKFIEVHYDAKCQVVGGYISHYLLEKSRICTQSAEERNYHVFYMLLAGAPQQLRDKLSLGKPDDYRYLSGCTQYFANAKTEQLIPGSQKSKNHQQKGPLKDPIIDDYQHFHNLDKALGRLGLSDTEKLGIYSLVAAVLHLGNIAFEEIPDDVRGGCQVSEASEQSLTITSGLLGVDQTELRTALVSRVMQSKGGGFKGTVIMVPLKIYEASNARDALAKAIYSRLFDRIVGLINQSIPFQASNFYIGVLDIAGFEYFTVNSFEQFCINYCNEKLQKFFNDNILKNEQELYKREGLNVPEITFTDNQDIIELIEAKSNGIFTLLDEESKLPKPSYSHFTAEVHKSWANHYRLGLPRSSRLKAHRTLRDEEGFLVRHFAGAVCYNTEQFIEKNNDALHASLEGLVQECDNPLLQTLFPSGSSTSVRGKLNFISVGSKFKTQLGELMEKLEQNGTNFIRCIKPNSKMIDRQFEGSLALAQLKCSGTISVLELMEHGYPSRVLFADLYSMYKSVLPPELVSLPARTFCEAMFQSLNLSAKDFKFGITKVFFRPGKFVEFDRIMRSDPENMLAIVAKVKKWLIRSRWVKSALGALCVIKLRNRIIYRNKCVLIAQRIARGFLARKQHRPRYQGIGKINKIRTNTLKTIEIASGLKMGREEIISGVNDIYRQIDDAIKKIKMNPRITQREMDSMYTVVMANMNKLTVDLNTKLKEQQQAEEQERLRKIQEALEAERAAKEAEEQRQREEIENKRLKAEMETRRKAAEAQRLRQEEEDRRAALALQEQLEKEAKDDAKYRQQLEQERRDHELALRLANESNGQVEDSPPVIRNGVNDASPMGPNKLIRSENVRAQQQALGKQKYDLSKWKYSELRDAINTSCDIELLEACRQEFHRRLKVYHAWKAKNRKRTTMDENERAPRSVMEAAFKQPPLVQPIQEIVTAQHRYFRIPFMRANAPDNTKRGLWYAHFDGQWIARQMELHADKPPILLVAGTDDMQMCELSLEETGLTRKRGAEILEHEFNREWERNGGKAYKNLGAAKPNGPAAAMQKQQ
With B1, in experiment [1], the binding entry is reported as “binds weakly”.

B2: Yp3, Flag-HA C-terminal fusion (BDGP FMO11010) (protein, UniProt P06607 20-420)
chain: SKDASNDRLKPTKWLTATELENVPSLNDITWERLENQPLEQGAKVIEKIYHVGQIKHDLTPSFVPSPSNVPVWIIKSNGQKVECKLNNYVETAKAQPGFGEDEVTIVLTGLPKTSPAQQKAMRRLIQAYVQKYNLQQLQKNAQEQQQQLKSSDYDYTSSEEAADQWKSAKAASGDLIIIDLGSTLTNFKRYAMLDVLNTGAMIGQTLIDLTNKGVPQEIIHLIGQGISAHVAGAAGNKYTAQTGHKLRRITGLDPAKVLSKRPQILGGLSRGDADFVDAIHTSTFAMGTPIRCGDVDFYPNGPSTGVPGSENVIEAVARATRYFAESVRPGSERNFPAVPANSLKQYKEQDGFGKRAYMGLQIDYDLRGDYILEVNAKSPFGQRSPAHKQAAYHGMHHAQN
Turning to B2, the binding result in experiment [1] is reported as “binds weakly”.
